Assay results published in PMC10579432.
These are yes or no findings as the source states them, for the method shown. Binding seen in cells or lysates may run through a third protein.

Amino acid sequences for entries named in this document (tags omitted).
UniProt G5E829: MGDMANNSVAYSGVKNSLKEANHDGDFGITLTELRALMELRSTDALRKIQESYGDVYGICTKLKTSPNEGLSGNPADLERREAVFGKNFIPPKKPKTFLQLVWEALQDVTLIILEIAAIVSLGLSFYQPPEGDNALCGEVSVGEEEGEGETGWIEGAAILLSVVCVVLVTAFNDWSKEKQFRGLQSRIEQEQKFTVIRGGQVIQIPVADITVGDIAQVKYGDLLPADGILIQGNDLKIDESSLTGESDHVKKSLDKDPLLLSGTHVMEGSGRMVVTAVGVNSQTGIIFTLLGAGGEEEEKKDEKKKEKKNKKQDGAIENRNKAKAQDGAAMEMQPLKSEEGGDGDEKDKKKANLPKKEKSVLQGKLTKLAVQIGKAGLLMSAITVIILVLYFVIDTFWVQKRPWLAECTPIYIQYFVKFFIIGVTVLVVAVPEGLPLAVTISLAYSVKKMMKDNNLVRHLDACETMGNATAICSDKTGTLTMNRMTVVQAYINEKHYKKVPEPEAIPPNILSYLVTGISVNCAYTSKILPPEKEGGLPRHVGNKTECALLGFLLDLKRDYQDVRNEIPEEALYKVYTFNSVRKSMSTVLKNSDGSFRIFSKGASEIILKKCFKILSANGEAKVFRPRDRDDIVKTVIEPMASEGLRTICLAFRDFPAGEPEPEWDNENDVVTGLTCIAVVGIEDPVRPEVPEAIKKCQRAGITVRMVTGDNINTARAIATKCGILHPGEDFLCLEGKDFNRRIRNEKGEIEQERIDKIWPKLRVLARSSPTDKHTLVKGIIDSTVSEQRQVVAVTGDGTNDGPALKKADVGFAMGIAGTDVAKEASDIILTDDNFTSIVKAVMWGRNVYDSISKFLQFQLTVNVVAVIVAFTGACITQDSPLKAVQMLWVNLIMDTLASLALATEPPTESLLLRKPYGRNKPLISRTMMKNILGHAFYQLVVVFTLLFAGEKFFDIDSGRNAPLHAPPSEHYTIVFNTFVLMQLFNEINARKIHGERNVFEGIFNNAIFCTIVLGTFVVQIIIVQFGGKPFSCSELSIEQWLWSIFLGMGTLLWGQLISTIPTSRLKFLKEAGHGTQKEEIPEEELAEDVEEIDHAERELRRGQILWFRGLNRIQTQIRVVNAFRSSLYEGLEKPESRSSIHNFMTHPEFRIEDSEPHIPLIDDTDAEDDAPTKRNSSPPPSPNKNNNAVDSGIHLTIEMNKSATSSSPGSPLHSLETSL
UniProt Q9R0K7: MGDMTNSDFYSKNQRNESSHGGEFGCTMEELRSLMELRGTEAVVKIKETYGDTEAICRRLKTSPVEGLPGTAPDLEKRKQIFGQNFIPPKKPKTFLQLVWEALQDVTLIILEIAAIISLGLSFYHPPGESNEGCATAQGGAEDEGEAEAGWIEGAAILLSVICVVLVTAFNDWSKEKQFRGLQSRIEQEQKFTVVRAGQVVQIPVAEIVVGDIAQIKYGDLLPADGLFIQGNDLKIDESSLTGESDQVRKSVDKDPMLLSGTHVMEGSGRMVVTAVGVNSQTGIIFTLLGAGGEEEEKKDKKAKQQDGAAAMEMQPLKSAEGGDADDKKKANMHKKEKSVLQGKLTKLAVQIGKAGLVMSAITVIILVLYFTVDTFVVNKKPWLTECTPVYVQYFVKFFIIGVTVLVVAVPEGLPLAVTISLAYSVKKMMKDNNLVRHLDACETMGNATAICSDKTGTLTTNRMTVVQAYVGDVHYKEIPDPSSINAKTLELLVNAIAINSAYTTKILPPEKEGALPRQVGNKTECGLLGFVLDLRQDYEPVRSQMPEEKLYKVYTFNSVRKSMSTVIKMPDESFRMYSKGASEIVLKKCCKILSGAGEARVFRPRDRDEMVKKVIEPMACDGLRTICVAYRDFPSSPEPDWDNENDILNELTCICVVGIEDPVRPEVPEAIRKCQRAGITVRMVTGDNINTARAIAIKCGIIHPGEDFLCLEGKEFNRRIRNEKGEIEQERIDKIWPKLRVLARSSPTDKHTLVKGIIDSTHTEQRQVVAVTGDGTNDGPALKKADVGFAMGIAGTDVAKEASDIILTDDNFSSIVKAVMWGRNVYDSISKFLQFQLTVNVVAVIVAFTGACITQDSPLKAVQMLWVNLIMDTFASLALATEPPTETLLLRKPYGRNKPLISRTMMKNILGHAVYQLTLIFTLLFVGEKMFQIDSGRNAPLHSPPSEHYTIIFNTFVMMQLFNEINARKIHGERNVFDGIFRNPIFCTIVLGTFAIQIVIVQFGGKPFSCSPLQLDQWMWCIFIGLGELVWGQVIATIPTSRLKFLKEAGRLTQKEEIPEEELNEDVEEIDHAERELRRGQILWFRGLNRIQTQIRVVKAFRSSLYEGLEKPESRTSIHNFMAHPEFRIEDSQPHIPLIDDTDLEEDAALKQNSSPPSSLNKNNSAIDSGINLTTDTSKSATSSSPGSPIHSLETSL
UniProt Q0VF55: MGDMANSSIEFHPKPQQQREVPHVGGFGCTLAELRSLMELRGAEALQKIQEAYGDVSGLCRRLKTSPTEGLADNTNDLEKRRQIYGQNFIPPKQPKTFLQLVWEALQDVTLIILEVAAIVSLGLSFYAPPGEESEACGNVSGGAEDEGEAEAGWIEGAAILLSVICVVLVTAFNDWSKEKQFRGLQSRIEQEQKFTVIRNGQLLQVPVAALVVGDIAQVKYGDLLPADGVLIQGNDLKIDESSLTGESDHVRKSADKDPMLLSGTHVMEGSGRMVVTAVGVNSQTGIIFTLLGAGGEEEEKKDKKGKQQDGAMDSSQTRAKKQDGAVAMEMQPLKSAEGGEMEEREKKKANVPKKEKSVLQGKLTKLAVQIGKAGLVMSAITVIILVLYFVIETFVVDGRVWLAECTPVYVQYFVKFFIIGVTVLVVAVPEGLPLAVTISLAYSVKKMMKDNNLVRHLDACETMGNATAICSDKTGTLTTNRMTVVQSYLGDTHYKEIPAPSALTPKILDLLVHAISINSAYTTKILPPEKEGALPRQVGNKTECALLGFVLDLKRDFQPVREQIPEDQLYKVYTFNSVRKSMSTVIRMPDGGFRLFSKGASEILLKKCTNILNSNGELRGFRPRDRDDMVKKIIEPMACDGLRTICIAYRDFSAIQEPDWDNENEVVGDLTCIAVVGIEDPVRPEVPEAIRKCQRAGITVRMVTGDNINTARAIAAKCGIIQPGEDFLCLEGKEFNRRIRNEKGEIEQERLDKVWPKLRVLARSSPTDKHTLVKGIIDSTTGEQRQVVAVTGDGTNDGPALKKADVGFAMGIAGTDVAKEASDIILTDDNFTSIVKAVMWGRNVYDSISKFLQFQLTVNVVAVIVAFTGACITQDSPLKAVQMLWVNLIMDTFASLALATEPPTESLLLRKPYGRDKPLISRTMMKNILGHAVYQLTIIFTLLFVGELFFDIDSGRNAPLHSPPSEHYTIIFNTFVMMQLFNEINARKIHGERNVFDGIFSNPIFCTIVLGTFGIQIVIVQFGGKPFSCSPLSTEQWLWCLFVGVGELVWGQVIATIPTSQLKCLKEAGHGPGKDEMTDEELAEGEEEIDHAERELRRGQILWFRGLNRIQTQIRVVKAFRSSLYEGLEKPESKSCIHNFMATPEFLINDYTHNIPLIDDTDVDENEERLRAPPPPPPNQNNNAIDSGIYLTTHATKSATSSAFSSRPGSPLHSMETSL
UniProt Q6Q477: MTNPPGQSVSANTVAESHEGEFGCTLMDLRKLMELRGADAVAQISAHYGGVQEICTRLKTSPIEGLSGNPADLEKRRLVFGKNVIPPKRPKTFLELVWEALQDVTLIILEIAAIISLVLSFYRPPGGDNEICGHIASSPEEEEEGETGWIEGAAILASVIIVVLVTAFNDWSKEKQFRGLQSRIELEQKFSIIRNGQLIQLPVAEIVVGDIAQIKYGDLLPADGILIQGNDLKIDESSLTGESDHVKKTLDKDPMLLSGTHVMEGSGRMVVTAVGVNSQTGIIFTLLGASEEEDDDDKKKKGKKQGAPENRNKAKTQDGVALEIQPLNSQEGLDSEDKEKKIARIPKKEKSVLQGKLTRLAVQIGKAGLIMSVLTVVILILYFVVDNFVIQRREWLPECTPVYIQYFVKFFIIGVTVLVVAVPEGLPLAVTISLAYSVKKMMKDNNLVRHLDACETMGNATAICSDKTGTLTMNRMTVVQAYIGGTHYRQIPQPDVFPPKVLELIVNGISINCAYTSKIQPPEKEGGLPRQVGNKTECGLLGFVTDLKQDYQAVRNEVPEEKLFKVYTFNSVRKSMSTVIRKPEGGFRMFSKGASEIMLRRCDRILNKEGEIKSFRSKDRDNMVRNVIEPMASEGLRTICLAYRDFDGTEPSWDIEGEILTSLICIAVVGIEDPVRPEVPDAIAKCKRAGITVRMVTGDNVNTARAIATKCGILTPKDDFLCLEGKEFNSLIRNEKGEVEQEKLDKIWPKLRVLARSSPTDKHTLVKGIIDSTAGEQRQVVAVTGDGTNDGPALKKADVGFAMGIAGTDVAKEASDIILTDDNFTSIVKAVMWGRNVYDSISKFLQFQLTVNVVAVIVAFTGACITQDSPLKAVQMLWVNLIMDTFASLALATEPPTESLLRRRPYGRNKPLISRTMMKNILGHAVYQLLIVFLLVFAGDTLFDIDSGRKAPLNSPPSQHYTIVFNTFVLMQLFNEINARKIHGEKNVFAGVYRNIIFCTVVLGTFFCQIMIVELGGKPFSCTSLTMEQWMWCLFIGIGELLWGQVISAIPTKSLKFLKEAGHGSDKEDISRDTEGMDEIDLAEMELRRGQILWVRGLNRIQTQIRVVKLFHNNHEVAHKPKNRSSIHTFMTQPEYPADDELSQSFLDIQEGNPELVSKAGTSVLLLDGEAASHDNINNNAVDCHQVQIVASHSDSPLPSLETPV

How the values were obtained:
Experiment in all cases: co-IP; pan-PMCA (5F10) antibody with Dynabeads Protein G; 10 cochleae (5 wild type C57BL/6N mice) pooled, NP-40 lysis buffer (150 mM NaCl, 50 mM Tris, 1% NP-40), 1 mg total protein, overnight at 4°C; blot with anti-Embigin G7.43.1 and anti-PMCA 5F10
[1] = target: plasma membrane calcium ATPase 1 (mouse (endogenous in cochlea)) (UniProt G5E829)
[2] = target: plasma membrane calcium ATPase 2 (mouse (endogenous in cochlea)) (UniProt Q9R0K7)
[3] = target: plasma membrane calcium ATPase 3 (mouse (endogenous in cochlea)) (UniProt Q0VF55)
[4] = target: plasma membrane calcium ATPase 4 (mouse (endogenous in cochlea)) (UniProt Q6Q477)

Measured: binding

B1: Embigin (protein, UniProt P21995 34-330)
chain: DPTDPTFTSLPVREEMMAKYSNLSLKSCNISVTEKSNVSVEENVILEKPSHVELKCVYTATKDLNLMNVTWKKDDEPLETTGDFNTTKMGNTLTSQYRFIVFNSKQLGKYSCVFGEKELRGTFNIHVPKAHGKKKSLIAYVGDSTVLKCVCQDCLPLNWTWYMGNETAQVPIDAHSNEKYIINGSHANETRLKIKHLLEEDGGSYWCRATFQLGESEEQNELVVLSFLVPLKPFLAILAEVILLVAIILLCEVYTHKKKNDPDAGKEFEQIEQLKSDDSNGIENNVPRYRKTDSADQ
no binding: all assays above
